These results are taken from article PMC4299599, “Quantification of cytosolic interactions identifies Ede1 oligomers as key organizers of endocytosis” (Molecular Systems Biology, 2014).

One assay has as its target T1, Sla1 (S. cerevisiae, UniProt P32790 1-1244).
T1 construct: Sla1, S. cerevisiae; also called Sla1-3myeGFP; Sla1-3mCherry; source: chromosomally tagged at the endogenous locus, in the cytoplasm of living S. cerevisiae cells
T1 sequence (looked up): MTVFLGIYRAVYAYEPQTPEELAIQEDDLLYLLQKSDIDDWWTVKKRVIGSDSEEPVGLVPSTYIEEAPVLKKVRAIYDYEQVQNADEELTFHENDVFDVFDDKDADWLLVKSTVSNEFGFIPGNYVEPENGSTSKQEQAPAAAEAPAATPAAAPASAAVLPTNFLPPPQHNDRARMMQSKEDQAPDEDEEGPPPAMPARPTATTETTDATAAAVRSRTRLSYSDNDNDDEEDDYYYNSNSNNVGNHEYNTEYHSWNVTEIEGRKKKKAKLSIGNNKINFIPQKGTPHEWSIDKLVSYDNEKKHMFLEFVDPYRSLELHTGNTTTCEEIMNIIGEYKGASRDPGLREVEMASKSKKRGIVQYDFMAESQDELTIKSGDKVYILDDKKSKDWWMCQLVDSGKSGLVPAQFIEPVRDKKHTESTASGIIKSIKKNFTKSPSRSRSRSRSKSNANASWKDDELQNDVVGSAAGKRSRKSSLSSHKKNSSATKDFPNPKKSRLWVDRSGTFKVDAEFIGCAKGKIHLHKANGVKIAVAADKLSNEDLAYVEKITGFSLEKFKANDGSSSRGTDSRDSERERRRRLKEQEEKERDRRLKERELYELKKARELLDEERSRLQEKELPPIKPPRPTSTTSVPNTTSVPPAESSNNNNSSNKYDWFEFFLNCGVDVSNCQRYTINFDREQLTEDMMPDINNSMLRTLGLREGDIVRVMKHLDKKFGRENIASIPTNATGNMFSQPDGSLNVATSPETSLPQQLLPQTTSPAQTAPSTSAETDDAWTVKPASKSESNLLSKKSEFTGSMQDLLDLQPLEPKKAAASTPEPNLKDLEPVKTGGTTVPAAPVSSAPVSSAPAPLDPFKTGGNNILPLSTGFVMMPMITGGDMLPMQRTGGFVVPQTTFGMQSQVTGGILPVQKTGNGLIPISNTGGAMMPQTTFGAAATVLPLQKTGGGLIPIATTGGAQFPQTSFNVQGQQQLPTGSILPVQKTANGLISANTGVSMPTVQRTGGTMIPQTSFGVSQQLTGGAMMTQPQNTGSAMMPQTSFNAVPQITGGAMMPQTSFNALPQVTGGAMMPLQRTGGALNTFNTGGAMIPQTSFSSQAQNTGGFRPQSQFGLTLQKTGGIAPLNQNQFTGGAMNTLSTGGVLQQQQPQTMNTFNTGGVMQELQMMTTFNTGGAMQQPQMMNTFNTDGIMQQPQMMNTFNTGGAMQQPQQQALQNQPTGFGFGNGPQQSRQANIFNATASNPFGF
The experiment in a line: condition: 1000 nM (only Kdeff-values < 1000 nM are shown); fluorescence cross-correlation spectroscopy (FCCS); in the cytoplasm of living yeast cells; first-named protein green (3myeGFP or 1myeGFP; eGFP for Don1), second red (3mCherry); self-interaction in diploid strains with one allele of each colour; apparent or effective KD (Kdeff) from single-cell measurements; only Kdeff values < 1000 nM are shown; values for self-interactions are upper limits.

A further assay addresses T2, Scd5 (S. cerevisiae) (UniProt P34758).
T2 sequence: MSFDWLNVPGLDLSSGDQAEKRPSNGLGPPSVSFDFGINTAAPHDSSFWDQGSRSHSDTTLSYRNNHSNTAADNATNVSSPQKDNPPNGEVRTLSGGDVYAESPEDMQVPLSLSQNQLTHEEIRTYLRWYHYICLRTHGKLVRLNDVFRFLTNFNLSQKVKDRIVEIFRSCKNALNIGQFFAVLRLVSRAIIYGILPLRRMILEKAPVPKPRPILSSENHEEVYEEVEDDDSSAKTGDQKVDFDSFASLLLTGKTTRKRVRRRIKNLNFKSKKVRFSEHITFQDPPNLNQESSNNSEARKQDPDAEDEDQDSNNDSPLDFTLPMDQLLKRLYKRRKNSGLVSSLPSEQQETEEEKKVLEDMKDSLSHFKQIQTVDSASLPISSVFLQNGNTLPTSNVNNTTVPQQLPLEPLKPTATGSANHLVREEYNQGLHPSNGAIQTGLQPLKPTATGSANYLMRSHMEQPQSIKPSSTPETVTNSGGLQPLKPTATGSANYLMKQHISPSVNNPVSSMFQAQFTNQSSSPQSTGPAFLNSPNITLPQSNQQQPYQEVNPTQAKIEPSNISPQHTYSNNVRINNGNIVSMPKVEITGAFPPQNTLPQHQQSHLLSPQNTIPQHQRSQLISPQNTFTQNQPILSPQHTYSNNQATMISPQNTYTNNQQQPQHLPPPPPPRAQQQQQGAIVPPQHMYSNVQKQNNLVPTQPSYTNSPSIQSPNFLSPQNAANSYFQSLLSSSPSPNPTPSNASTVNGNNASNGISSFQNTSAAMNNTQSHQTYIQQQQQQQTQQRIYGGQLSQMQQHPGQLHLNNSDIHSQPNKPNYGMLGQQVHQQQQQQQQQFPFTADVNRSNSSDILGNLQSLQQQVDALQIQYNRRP
The description is as above.

Results are given in words; binding and its absence hold for the method and conditions named.

B1: Scd5 (protein, UniProt P34758 1-872)
chain: MSFDWLNVPGLDLSSGDQAEKRPSNGLGPPSVSFDFGINTAAPHDSSFWDQGSRSHSDTTLSYRNNHSNTAADNATNVSSPQKDNPPNGEVRTLSGGDVYAESPEDMQVPLSLSQNQLTHEEIRTYLRWYHYICLRTHGKLVRLNDVFRFLTNFNLSQKVKDRIVEIFRSCKNALNIGQFFAVLRLVSRAIIYGILPLRRMILEKAPVPKPRPILSSENHEEVYEEVEDDDSSAKTGDQKVDFDSFASLLLTGKTTRKRVRRRIKNLNFKSKKVRFSEHITFQDPPNLNQESSNNSEARKQDPDAEDEDQDSNNDSPLDFTLPMDQLLKRLYKRRKNSGLVSSLPSEQQETEEEKKVLEDMKDSLSHFKQIQTVDSASLPISSVFLQNGNTLPTSNVNNTTVPQQLPLEPLKPTATGSANHLVREEYNQGLHPSNGAIQTGLQPLKPTATGSANYLMRSHMEQPQSIKPSSTPETVTNSGGLQPLKPTATGSANYLMKQHISPSVNNPVSSMFQAQFTNQSSSPQSTGPAFLNSPNITLPQSNQQQPYQEVNPTQAKIEPSNISPQHTYSNNVRINNGNIVSMPKVEITGAFPPQNTLPQHQQSHLLSPQNTIPQHQRSQLISPQNTFTQNQPILSPQHTYSNNQATMISPQNTYTNNQQQPQHLPPPPPPRAQQQQQGAIVPPQHMYSNVQKQNNLVPTQPSYTNSPSIQSPNFLSPQNAANSYFQSLLSSSPSPNPTPSNASTVNGNNASNGISSFQNTSAAMNNTQSHQTYIQQQQQQQTQQRIYGGQLSQMQQHPGQLHLNNSDIHSQPNKPNYGMLGQQVHQQQQQQQQQFPFTADVNRSNSSDILGNLQSLQQQVDALQIQYNRRP
In the case of B1, the binding result with Sla1 and in the assay with Scd5 (S. cerevisiae) was “no binding” each time.
